Our source for the binding values is publication PMC3563580.

No constants are given. Whether binding was seen depends on the method and setting. Binding seen in cells or lysates may run through a third protein. Some results given as binding are weak or reduced against the parent protein; the word gives no strength.

In assay [1] the target is T1, SIN3A, endogenous (human (endogenous in MDA-MB-231, MCF10A and MCF10CAa.1)) (UniProt Q96ST3).
T1 sequence: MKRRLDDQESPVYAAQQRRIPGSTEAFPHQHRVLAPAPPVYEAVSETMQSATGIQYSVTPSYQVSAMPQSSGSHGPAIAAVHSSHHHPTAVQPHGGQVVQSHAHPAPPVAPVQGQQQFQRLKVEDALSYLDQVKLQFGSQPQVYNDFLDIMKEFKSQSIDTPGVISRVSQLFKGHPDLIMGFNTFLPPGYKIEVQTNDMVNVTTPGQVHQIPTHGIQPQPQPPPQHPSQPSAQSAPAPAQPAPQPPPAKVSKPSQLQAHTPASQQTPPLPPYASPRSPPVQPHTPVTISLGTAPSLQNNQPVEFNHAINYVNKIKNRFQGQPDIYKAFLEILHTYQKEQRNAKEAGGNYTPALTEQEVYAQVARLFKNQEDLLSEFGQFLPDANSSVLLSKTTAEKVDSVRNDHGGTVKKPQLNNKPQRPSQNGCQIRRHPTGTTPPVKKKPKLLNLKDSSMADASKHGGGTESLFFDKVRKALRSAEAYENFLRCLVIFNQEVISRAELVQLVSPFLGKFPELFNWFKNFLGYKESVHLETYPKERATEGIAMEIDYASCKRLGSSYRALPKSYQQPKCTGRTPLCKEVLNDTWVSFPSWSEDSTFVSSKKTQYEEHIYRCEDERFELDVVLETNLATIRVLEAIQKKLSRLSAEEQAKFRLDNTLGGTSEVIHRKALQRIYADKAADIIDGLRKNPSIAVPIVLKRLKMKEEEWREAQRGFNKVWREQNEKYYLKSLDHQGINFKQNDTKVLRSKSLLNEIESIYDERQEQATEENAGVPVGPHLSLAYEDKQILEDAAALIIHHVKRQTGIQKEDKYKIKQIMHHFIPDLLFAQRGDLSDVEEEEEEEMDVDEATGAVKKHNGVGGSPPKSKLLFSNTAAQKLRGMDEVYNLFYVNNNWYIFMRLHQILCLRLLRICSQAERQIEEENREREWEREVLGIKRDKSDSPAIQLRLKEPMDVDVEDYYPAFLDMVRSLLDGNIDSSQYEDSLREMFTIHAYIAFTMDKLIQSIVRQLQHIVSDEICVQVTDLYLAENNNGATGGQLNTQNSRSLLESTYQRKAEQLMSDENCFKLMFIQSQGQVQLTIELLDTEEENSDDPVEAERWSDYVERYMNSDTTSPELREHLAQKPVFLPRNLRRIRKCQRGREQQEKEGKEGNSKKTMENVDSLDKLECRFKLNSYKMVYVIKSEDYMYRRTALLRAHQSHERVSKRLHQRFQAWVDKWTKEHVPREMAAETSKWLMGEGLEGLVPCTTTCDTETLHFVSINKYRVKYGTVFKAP
Put plainly: co-IP; SIN3A immunoprecipitated with a polyclonal SIN3A antibody from nuclear fractions (NE-PER kit) of MDA-MB-231 cells and derivatives; blot probed for BRMS1 (3a1.21).

Assay [2] deals with T1, SIN3A, endogenous (human (endogenous in MDA-MB-231, MCF10A and MCF10CAa.1)). Kind of assay: co-IP; SIN3A immunoprecipitated with a polyclonal SIN3A antibody from cytoplasmic fractions (NE-PER kit) of MDA-MB-231 cells and derivatives; blot probed for BRMS1 (3a1.21).
Assay [3] shares this target. Kind of assay: proximity ligation; Duolink PLA (Olink) on fixed, permeabilised MCF10A and MCF10CAa.1 cells; SIN3A and BRMS1 primary antibodies 1:100, anti-mouse minus and anti-rabbit plus probes.

B1: Breast cancer metastasis suppressor 1 (BRMS1), wild type, constitutively expressed in MDA-MB-231 (protein, UniProt Q9HCU9 1-246)
chain: MPVQPPSKDTEEMEAEGDSAAEMNGEEEESEEERSGSQTESEEESSEMDDEDYERRRSECVSEMLDLEKQFSELKEKLFRERLSQLRLRLEEVGAERAPEYTEPLGGLQRSLKIRIQVAGIYKGFCLDVIRNKYECELQGAKQHLESEKLLLYDTLQGELQERIQRLEEDRQSLDLSSEWWDDKLHARGSSRSWDSLPPSKRKKAPLVSGPYIVYMLQEIDILEDWTAIKKARAAVSPQKRKSDGP
For B1, the binding result in assay [1] and in assay [2] was “binds” in each case.

B2: BRMS1, endogenous (protein, UniProt Q9HCU9 1-246)
chain: MPVQPPSKDTEEMEAEGDSAAEMNGEEEESEEERSGSQTESEEESSEMDDEDYERRRSECVSEMLDLEKQFSELKEKLFRERLSQLRLRLEEVGAERAPEYTEPLGGLQRSLKIRIQVAGIYKGFCLDVIRNKYECELQGAKQHLESEKLLLYDTLQGELQERIQRLEEDRQSLDLSSEWWDDKLHARGSSRSWDSLPPSKRKKAPLVSGPYIVYMLQEIDILEDWTAIKKARAAVSPQKRKSDGP
Regarding B2, the binding entry in assay [1] and in assay [3] was “binds” in each case.
